No constants are given. Whether binding was seen depends on the method and setting. Binding seen in cells or lysates may run through a third protein.

Amino acid sequences for entries named in this document (tags omitted).
UniProt Q15717: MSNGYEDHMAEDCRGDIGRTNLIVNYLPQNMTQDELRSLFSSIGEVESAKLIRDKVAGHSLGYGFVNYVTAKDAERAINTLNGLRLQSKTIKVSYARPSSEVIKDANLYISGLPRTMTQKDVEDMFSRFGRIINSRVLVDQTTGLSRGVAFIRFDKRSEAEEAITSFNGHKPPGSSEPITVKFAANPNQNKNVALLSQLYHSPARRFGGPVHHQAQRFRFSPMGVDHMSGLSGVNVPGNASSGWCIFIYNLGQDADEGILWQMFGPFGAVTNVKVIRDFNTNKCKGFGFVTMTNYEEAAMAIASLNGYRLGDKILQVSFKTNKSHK

The assay deals with T1, Wilms tumor 1-associated protein (WTAP) (human (endogenous in Huh7)) (UniProt Q15007).
T1 sequence: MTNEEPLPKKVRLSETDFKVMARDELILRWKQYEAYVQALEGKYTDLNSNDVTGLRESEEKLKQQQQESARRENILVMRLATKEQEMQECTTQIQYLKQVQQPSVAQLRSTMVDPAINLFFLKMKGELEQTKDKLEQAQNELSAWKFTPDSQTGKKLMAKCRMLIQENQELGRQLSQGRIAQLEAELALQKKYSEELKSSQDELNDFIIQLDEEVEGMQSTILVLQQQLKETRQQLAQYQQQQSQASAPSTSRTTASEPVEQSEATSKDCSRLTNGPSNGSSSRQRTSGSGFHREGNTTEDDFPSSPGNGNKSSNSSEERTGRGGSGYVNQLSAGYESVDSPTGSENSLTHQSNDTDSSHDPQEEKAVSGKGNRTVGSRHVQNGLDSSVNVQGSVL
Kind of assay: co-IP; Huh7 cells; Dynabeads Co-Immunoprecipitation Kit; protein extracted with IP Lysis Buffer put on beads premixed with antibodies of WTAP or IgG; partners of WTAP identified by immunoblots.

In the case of “Hu-Antigen R (HuR) (from UniProt Q15717 1-326)”, the binding entry is on record as “no binding”.

For the origin of these results see PMC6704583.
